Assay results reported in paper PMC8042123.
No constants are given. Whether binding was seen depends on the method and setting. Binding seen in cells or lysates may run through a third protein. Tags and fused reporters may be left off the sequences shown.

Amino acid sequences for entries named in this document (tags omitted). A change or cut given only in a name is not applied to a line headed by its entry.
UniProt Q96524: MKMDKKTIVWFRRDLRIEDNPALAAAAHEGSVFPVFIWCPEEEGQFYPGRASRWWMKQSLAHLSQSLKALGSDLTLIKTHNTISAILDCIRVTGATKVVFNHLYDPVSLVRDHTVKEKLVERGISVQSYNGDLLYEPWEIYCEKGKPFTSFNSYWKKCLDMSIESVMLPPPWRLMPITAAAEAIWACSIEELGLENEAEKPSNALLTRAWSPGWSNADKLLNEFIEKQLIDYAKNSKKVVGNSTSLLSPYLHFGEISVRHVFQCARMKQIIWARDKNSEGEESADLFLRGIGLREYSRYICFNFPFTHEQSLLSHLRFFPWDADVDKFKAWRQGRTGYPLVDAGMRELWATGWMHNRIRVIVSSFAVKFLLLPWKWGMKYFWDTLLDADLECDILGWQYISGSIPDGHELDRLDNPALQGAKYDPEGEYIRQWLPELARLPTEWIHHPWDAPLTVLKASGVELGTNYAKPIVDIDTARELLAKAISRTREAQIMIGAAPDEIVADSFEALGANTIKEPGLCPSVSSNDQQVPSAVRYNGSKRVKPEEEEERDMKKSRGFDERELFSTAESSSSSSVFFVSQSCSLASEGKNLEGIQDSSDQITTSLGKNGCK

Tests used:
Assay in all cases: co-IP; HEK293T cells co-transfected (with PPK1, PPK1^D267N or SPA1 as indicated), blue light 100 μmol m^-2 s^-1 for 2 h; lysis in 1% Brij buffer, Anti-FLAG M2 affinity gel 4 °C 2 h, elution with 3xFlag peptide, immunoblot
[1] = target: Flag-CRY2^D387A (Arabidopsis thaliana) (UniProt Q96524)
[2] = target: CRY2^P532L, Flag-tagged, unphosphorylated (Arabidopsis thaliana) (UniProt Q96524)
[3] = target: CRY2^P532L, Flag-tagged, phosphorylated (co-expressed with PPK1, blue light) (Arabidopsis thaliana) (UniProt Q96524)

Measured: binding

B1: Myc-SPA1 (protein, UniProt Q9SYX2 1-1029)
chain: MPVMERVAEETVATNNIQLKARVDDVPCNKLDARHNDMVIQSETANSDCPGSSAHRNVDLTKPPPPEEAAGAKLSVEELTLGNYRIVQGSNNTNVDSPRAGKFEHLYRLARGSAFRAGDGDLDSQPRDMDQMLSRIRQQLAGAPSERQNLKPFMSRRSDQNLEAFSERLRAAGENSIMNAPALISEGVQMKTPVSSSNFSQLLLKRAMKGKGVVGKNQETPPEFVSDQDLGSKEKKLDISKSPTPHDVLPLKSSPKGNGMVSHGDGNHSKSSIGISLREFLRSSYAKREKRHGLCLFRQLVELVDSAHSKRLFLLDLRPSLFTLVPSKKLRYIGNFGKNDLESDVDEDLNRRRPVVEESSSGGRDSKKRKMDLHLNSPGNQLQATSTGRPFKRKSPVIDLNMVDARNPDSCELQQQDYIKNLSVSSVSRKQSMSTWLEEQWYTCPEEINGEDIGEKSNIYALGVLLFELLCHCESGEMHAAMMADLRHRILPPTFLSKYPKEAGFCLWLLHPEPSSRPSARDILKSELICEDDSVKSTAAAEEISELLLHFLSSLEVQKKKKASKLLQDIQTLEDDIKEAERRYSSNVSLVRSHGAIEKRVQSSPLDEHCTTSSALFVPTANTDRLMSNIRQLEDAYFFMRSQINLSSSAATARSDKTLKDRDRCSENQNENQDMSTKGKSSDQLEVFFEGLCKFARYSKFETCGTIRSGDLLNSASVVCSLSFDPDEEHIAAAGISKKIKIFDFNAFMNESVGVHYPLVEMVNKSKLSCVCWNSYIKNYLASTDYDGVVQIWDAGTGQGFSQYTEHQKRAWSVDFSPSDPTKFVSGSDDCSVKLWSINEKRSLGTIWSPANVCCVQFSSYSNHLLAFGSADYKVYCYDLRYVKTPWCTLAGHEKAVSYVKFMDSETIVSASTDNSLKLWNLNKTNSSGLSPGACSLTYKGHTNQKNFVGLSVLDGYIACGSETNEVYSYYKSLPMPMTSYKFGSVDPISGNEYFDDNGQFVSSVCWRKKSNMLVAANSTGNMKLLKLV
no binding: [1] | [2] | [3]
